Results taken from patent publication US20070043078A1, “Angiogenesis inhibitor” (Kowa Co., Ltd., priority 2003, published 2007).
Some results were stated once for a whole list of compounds, not compound by compound.

Test system: tubule formation induced by coculturing vascular endothelial cells and fibroblast
Test: Angiogenesis-inhibiting effect using cultured cells (Angiogenesis Kit, tubule formation in coculture, VEGF-A induced)
Format: cell-based
Settings: 10 ng/mL VEGF-A; tested at 0.1, 0.3, 1, 3 umol/L; anti-CD 31 immunostaining on the 11th day of culture; image quantitation

Structure (SMILES) | concentrations at which angiogenesis was inhibited (tubule area and tubule length) [µmol/L]
COc1ccc(N(Cc2cncc(-c3cc(OC)c(OC)c(OC)c3)c2)C2CCN(Cc3ccnc(-c4cc(OC)c(OC)c(OC)c4)c3)CC2)cc1.O=C(O)CC(O)(CC(=O)O)C(=O)O [compound 1, 4-[N-(4-methoxyphenyl)-N-[[5-(3,4,5-trimethoxyphenyl)pyridin-3-yl]methyl]amino]-1-[[2-(3,4,5-trimethoxyphenyl)pyridin-4-yl]methyl]piperidine citrate] | ≥ 0.3
COc1ccc(N(Cc2ccnc(-c3cc(OC)c(OC)c(OC)c3)c2)C2CCN(Cc3ccnc(-c4cc(OC)c(OC)c(OC)c4)c3)CC2)cc1.Cl.Cl.Cl [compound 2, 4-[N-(4-methoxyphenyl)-N-[[2-(3,4,5-trimethoxyphenyl)pyridin-4-yl]methyl]amino]-1-[[2-(3,4,5-trimethoxyphenyl)pyridin-4-yl]methyl]piperidine trihydrochloride] | ≥ 0.3
